PubChem BioAssay AID624297 (National Center for Advancing Translational Sciences (NCATS), 2012)
The whole screen tested about 340,000 compounds, of which about 6,200 (1.8%) were called active. This list was built around the results that the source calls inconclusive (neither active nor inactive); the mix of calls is not that of the screen. The call rests on the fitted dose curve; in most records, active means well fitted activation curve with a large enough effect; inconclusive means small, poorly fitted or top-dose-only effect; inactive means no such curve, though single readings can be large or run the other way. A potency beside an inconclusive call is a rough fit, not a confirmed value.

Assay: A quantitative high throughput screen for small molecules that induce DNA re-replication in SW480 colon adenocarcinoma cells. Further: nearly all actives have a fitted effect of over 55% in size. On re-replication activation: % of control where 0% means no effect.
Conditions: Hoechst DNA content imaging, 48 h; re-replication activation: at 46.1 µM (top of the series)
How it was run: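 Compounds, transferred as 23 nL by pin tool, were incubated with cells for 48 hr; DNA content per nucleus was then quantified by Hoechst staining and fluorescence plate imaging.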
Potency means the concentration at half of the fitted maximal effect.

| SMILES | Potency | re-replication activation |
| --- | --- | --- |
| COc1ccc(CNC(=O)C2CCN(S(=O)(=O)c3ccc4c(c3)CC(C)N4C(C)=O)CC2)cc1 (configuration not stated) | inconclusive: 3.66 µM [activator, single point] |  |
| Cc1cc(NCc2ccccn2)n2ncc(-c3ccccc3)c2n1 | active: 0.82 µM |  |
| CCN1CCN(c2ncc(C(=O)Nc3ccccc3C(=O)OC)c3ccccc23)CC1 | inconclusive: 31.6 µM [activator, single point] |  |
| CCOC(=O)c1cc(-c2c(Cl)cccc2Cl)no1 |  | inactive: -8.8% |
| Cn1c(=O)c2c(nc(Br)n2CC(=O)C23CC4CC(CC(C4)C2)C3)n(C)c1=O | inconclusive: 20.6 µM [activator, partial curve, poor fit] |  |
| NS(=O)(=O)c1ccc(NC(=O)CN2CCCN(S(=O)(=O)c3ccc(F)cc3)CC2)cc1 | inconclusive: 11.6 µM [activator, partial curve, poor fit] |  |
| CC(=O)COc1ccc2oc(=O)cc(-c3cc4ccccc4o3)c2c1 | inconclusive: 6.51 µM [activator, single point] |  |
| O=C(Nc1cc(S(=O)(=O)N2CCCCC2)ccc1Oc1ccccc1)C1=COCCO1 |  | inactive: 5.72% |
| COC(=O)c1c(NC(=O)COc2ccc(Cl)cc2)sc2c1CC(C)(C)NC2(C)C | inconclusive: 25.9 µM [activator, single point] |  |
| COc1ccc2nc(N3C(=O)/C(=C/c4ccccc4)NC3=S)sc2c1 |  | inactive: 21.9% |
| CCC(Sc1nc2cc(OC)c(OC)cc2c(=O)n1CCc1ccc(OC)c(OC)c1)C(=O)NCCOC (configuration not stated) | inconclusive: 29.1 µM [activator, single point] |  |
| COC(=O)c1c(NC(=O)C(=O)N2CCOCC2)sc2c1CCCC2 | inconclusive: 29.1 µM [activator, single point] |  |
| O=C(COc1cc2oc(=O)c3c(c2cc1Cl)CCC3)NCCCN1CCOCC1 | inconclusive: 14.6 µM [activator, partial curve, poor fit] |  |
| CCc1c(C)sc(NC(=O)c2cc(C)on2)c1C#N | inconclusive: 29.1 µM [activator, partial curve, poor fit] |  |
| CCN(CC(=O)NC1CC1)S(=O)(=O)c1ccc(OC)cc1 | inconclusive: 20.6 µM [activator, single point] |  |
| O=C(Cc1ccc(F)cc1)Nc1nnc(-c2ccc(F)cc2)o1 | inconclusive: 29.1 µM [activator, single point] |  |
| COc1ccc(-n2c(SCC(=O)NC3CCCCC3)nc3ccsc3c2=O)cc1 |  | inactive: -7.75% |
| O=C(O)CC(CC(=O)N1CCN(C(=O)c2ccco2)CC1)c1ccccc1 (configuration not stated) | inconclusive: 29.1 µM [activator, single point] |  |
| CCn1c(=O)cc(SCC(=O)Nc2cccc(C)n2)c2ccccc21 |  | inactive: -5.38% |
| S=C(NCCc1ccccc1)Nc1ccc(N2CCCCC2)cc1 |  | inactive: -13.3% |
| O=C1N=C2N(CCN3CCCCC3)c3ccccc3N2/C1=C\c1ccc([N+](=O)[O-])s1 | inconclusive: 3.26 µM [activator, full curve, poor fit] |  |
| CN(C)S(=O)(=O)c1cccc(-c2nnc(SCCNCCO)n2-c2ccc(F)cc2)c1 | inconclusive: 0.794 µM [activator, partial curve, poor fit] |  |
| COc1cccc(OC)c1OCCN1CCN(C(c2ccccc2)c2ccccc2)CC1 |  | inactive: 17.7% |
| CN(C)c1ccc(/C=C/c2nc3ccccc3s2)cc1 | active: 9.2 µM |  |

Part of the list above in order of formula weight, smallest number first.

| SMILES | Potency | re-replication activation |
| --- | --- | --- |
| CCc1c(C)sc(NC(=O)c2cc(C)on2)c1C#N | inconclusive: 29.1 µM [activator, partial curve, poor fit] |  |
| CCN(CC(=O)NC1CC1)S(=O)(=O)c1ccc(OC)cc1 | inconclusive: 20.6 µM [activator, single point] |  |
| Cc1cc(NCc2ccccn2)n2ncc(-c3ccccc3)c2n1 | active: 0.82 µM |  |
| S=C(NCCc1ccccc1)Nc1ccc(N2CCCCC2)cc1 |  | inactive: -13.3% |
| CCn1c(=O)cc(SCC(=O)Nc2cccc(C)n2)c2ccccc21 |  | inactive: -5.38% |
| COc1ccc2nc(N3C(=O)/C(=C/c4ccccc4)NC3=S)sc2c1 |  | inactive: 21.9% |
| O=C(O)CC(CC(=O)N1CCN(C(=O)c2ccco2)CC1)c1ccccc1 (configuration not stated) | inconclusive: 29.1 µM [activator, single point] |  |
| CCN1CCN(c2ncc(C(=O)Nc3ccccc3C(=O)OC)c3ccccc23)CC1 | inconclusive: 31.6 µM [activator, single point] |  |
| O=C(COc1cc2oc(=O)c3c(c2cc1Cl)CCC3)NCCCN1CCOCC1 | inconclusive: 14.6 µM [activator, partial curve, poor fit] |  |
| COc1ccc(-n2c(SCC(=O)NC3CCCCC3)nc3ccsc3c2=O)cc1 |  | inactive: -7.75% |
| Cn1c(=O)c2c(nc(Br)n2CC(=O)C23CC4CC(CC(C4)C2)C3)n(C)c1=O | inconclusive: 20.6 µM [activator, partial curve, poor fit] |  |
| COC(=O)c1c(NC(=O)COc2ccc(Cl)cc2)sc2c1CC(C)(C)NC2(C)C | inconclusive: 25.9 µM [activator, single point] |  |
| O=C(Nc1cc(S(=O)(=O)N2CCCCC2)ccc1Oc1ccccc1)C1=COCCO1 |  | inactive: 5.72% |
| CN(C)S(=O)(=O)c1cccc(-c2nnc(SCCNCCO)n2-c2ccc(F)cc2)c1 | inconclusive: 0.794 µM [activator, partial curve, poor fit] |  |
| NS(=O)(=O)c1ccc(NC(=O)CN2CCCN(S(=O)(=O)c3ccc(F)cc3)CC2)cc1 | inconclusive: 11.6 µM [activator, partial curve, poor fit] |  |
| COc1ccc(CNC(=O)C2CCN(S(=O)(=O)c3ccc4c(c3)CC(C)N4C(C)=O)CC2)cc1 (configuration not stated) | inconclusive: 3.66 µM [activator, single point] |  |
| CCC(Sc1nc2cc(OC)c(OC)cc2c(=O)n1CCc1ccc(OC)c(OC)c1)C(=O)NCCOC (configuration not stated) | inconclusive: 29.1 µM [activator, single point] |  |

Remaining list, next part

| SMILES | Potency | re-replication activation |
| --- | --- | --- |
| CSc1ccccc1NC(=O)Nc1ccc(Cl)cc1 | inconclusive: 18.4 µM [activator, partial curve, poor fit] |  |
| CCn1c(/C=C/c2ccccc2Cl)nc2ccccc2c1=O | inconclusive: 29.1 µM [activator, partial curve, poor fit] |  |
| Cc1ccc(S(=O)(=O)Nc2cc(=O)[nH]c(SCc3ccccc3Cl)n2)cc1 | inconclusive: 29.1 µM [activator, single point] |  |
| CCc1ccc(CN2CCC(Oc3ccc(C(=O)N4CCCC4)cc3)CC2)cc1 |  | inactive: 4.1% |
| CCNC(=O)N1C(=O)C2(OCCO2)c2cc(Br)ccc21 |  | inactive: -16% |
| CC(C)(C)n1nnnc1C(c1ccccn1)N(Cc1ccccc1)Cc1ccc(Cl)cc1 (configuration not stated) | inconclusive: 29.1 µM [activator, partial curve, poor fit] |  |
| COc1ccc(S[C@@H](CCN2CC[C@H](O)CCC2=O)c2ccccc2)cc1 |  | inactive: -93.8% |
| CCOc1ccc(S(=O)(=O)N2CCN=C2c2ccccc2)cc1 | active: 7.31 µM |  |
| O=C(C[C@@H]1C/C=C/CC[C@H](Cc2ccc(F)cc2)C(=O)O[C@H](c2ccccc2)CNC1=O)NCCO |  | inactive: 3.81% |
| CC1CN(S(=O)(=O)c2ccc(C(=O)Nc3nnc(-c4ccc5c(c4)CCCC5)o3)cc2)CC(C)O1 (configuration not stated) |  | inactive: 9.98% |
| Cn1c(=O)c2[nH]c(NN=Cc3ccccc3)nc2n(C)c1=O | inconclusive: 29.1 µM [activator, single point] |  |
| Cc1ccc(S(=O)(=O)NCCc2nnc3ccc(SCC(=O)Nc4nc(C)cs4)nn23)cc1 | inconclusive: 8.2 µM [activator, partial curve] |  |
| O=S(=O)(c1ccc2nc(Cc3ccccc3)[nH]c2c1)N1CCOCC1 | inconclusive: 23.1 µM [activator, partial curve, poor fit] |  |
| COc1cc2c(cc1OC)[C@H](Cc1ccc(O)cc1)NCC2 | inconclusive: 0.0046 µM [activator, full curve, poor fit] |  |
| CCN(C(=O)COC(=O)c1cnc(C)cn1)c1c(N)n(Cc2ccccc2)c(=O)[nH]c1=O | inconclusive: 29.1 µM [activator, single point] |  |
| Cc1ccc(S(=O)(=O)CCCS(=O)(=O)c2ccc(C)cc2)cc1 |  | inactive: 1.35% |
| Cc1c(Br)c([N+](=O)[O-])nn1CC(=O)N(C)Cc1ccccc1 | inconclusive: 0.58 µM [activator, single point] |  |
| COc1ccc(N(CC(=O)N/N=C/c2ccc(-c3ccc([N+](=O)[O-])cc3)o2)S(=O)(=O)c2ccc(C)cc2)cc1 | active: 9.2 µM |  |
| O=C(Cn1cnc2c(NCc3ccccc3)ncnc21)NCCc1cc2ccccc2[nH]1 | inconclusive: 1.03 µM [activator, full curve, poor fit] |  |
| Cc1c(NC(=O)c2cc(S(=O)(=O)N3CCCCC3)ccc2Cl)c(=O)n(-c2ccccc2)n1C |  | inactive: -5.85% |
| CC(C)CC(c1nnnn1CC1CCCO1)N1CCN(c2cccc(Cl)c2)CC1 (configuration not stated) | inconclusive: 32.6 µM [activator, partial curve, poor fit] |  |
| NC1(C#Cc2ccc3c(=O)c4ccccc4sc3c2)CCCCC1 | inconclusive: 20.6 µM [activator, single point] |  |
| O=C(COc1ccc(Cl)cc1)NCCC1=CCCCC1 |  | inactive: 0.0093% |
| COc1ccc(C)cc1NC(=O)c1nnn(Cc2cccc(F)c2)c1N |  | inactive: 19.5% |

| SMILES | Potency | re-replication activation |
| --- | --- | --- |
| OCCNCCCCOc1cccc(Br)c1 | inconclusive: 0.0731 µM [activator, full curve, poor fit] |  |
| CCOc1cc(/C=C2\N=C(C)OC2=O)cc(Br)c1OCCc1ccccc1 |  | inactive: -4.55% |
| O=C(NN=Cc1ccccc1O)C(O)(c1ccccc1)c1ccccc1 | inconclusive: 29.1 µM [activator, single point] |  |
| COc1cc(NC(=O)c2cccs2)c(OC)cc1NC(=O)c1cccs1 |  | inactive: -1.76% |
| COc1ccc(NC(=O)c2sc3ncnc(N4CCN(c5ccccn5)CC4)c3c2C)cc1Cl | inconclusive: 29.1 µM [activator, partial curve, poor fit] |  |
| CCOc1ccccc1C(=O)N(C)Cc1cc2cc(OC)ccc2[nH]c1=O |  | inactive: -9.14% |
| Clc1ccc2c(c1)C(N1CCNCC1)=Nc1ccccc1O2 | inactive |  |
| C=C1c2ccccc2O[C@H](C(=O)OCC)[C@@H]1C1CCCCC1 |  | inactive: -11.1% |
| CCOC(=O)C1CCN(S(=O)(=O)c2ccc(Cl)s2)CC1 |  | inactive: -6.04% |
| Cn1nc(N)nc1N1CCN(c2ccc(F)cc2)CC1 |  | inactive: -0.92% |
| COCCCNC(=O)Cc1c(C)c2cc3c(cc2oc1=O)OC(C)(C)CC3 | inconclusive: 23.1 µM [activator, single point] |  |
| COc1ccc(NS(=O)(=O)c2cc(NC(=O)C3CC3)ccc2N2CCOCC2)cc1 | inconclusive: 32.6 µM [activator, partial curve, poor fit] |  |
| Cc1ccc2[nH]c(=O)c3cc(C(=O)NCCC(C)C)sc3c2c1 |  | inactive: -7.28% |
| c1ccc(CN2CCN(c3nc4ccccc4n4cnnc34)CC2)cc1 | inconclusive: 0.0731 µM [activator, full curve, poor fit] |  |
| COc1cccc(CC2(CO)CCCN(Cc3[nH]c4ccc(C)cc4c3C)C2)c1 (configuration not stated) | inconclusive: 20.6 µM [activator, single point] |  |
| CCC(C)N1CC(O)=C(c2nc3ccccc3[nH]2)C1=N (configuration not stated) |  | inactive: -0.961% |
| CN(CC(=O)NCc1ccco1)CC(=O)Nc1cc(S(C)(=O)=O)ccc1Cl |  | inactive: -512% |
| Cc1cc(=O)c(C(=O)OC(C)C(=O)NC(N)=O)nn1-c1ccc(Cl)cc1 (configuration not stated) | inconclusive: 23.1 µM [activator, single point] |  |
| Cc1ccc2nc(SCc3ccccc3)c(C=O)c(=O)n2c1 |  | inactive: -12.9% |
| COCC(=O)N1CCN(c2cccc(Cl)c2)CC1 |  | inactive: -0.823% |
| CCOC(=O)/C(C#N)=C/c1c[nH]c2ccccc12 |  | inconclusive: 32.3% [activator] |
| O=c1cc(C(F)(F)F)[nH]c2ccc(C(F)(F)F)cc12 | inconclusive: 23.1 µM [activator, single point] |  |
| O=C(COC(=O)c1ccc(S(=O)(=O)N2CCCC2)cc1)Nc1cccc(Br)c1 |  | inactive: 0.514% |
| NS(=O)(=O)c1ccc(NC(=O)c2ccc(-c3ccccc3)cc2)cc1 | inconclusive: 18.4 µM [activator, single point] |  |
